Measurements published in PubChem BioAssay AID1508600 (Functional Genomics Laboratory (NCATS/FGL), 2020).
Among all 53,000 sequences or so, about 3,700 (7%) were called active.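 The calls were made as follows: active = gene knockdowns whose robust z-score for IL-1 alpha signal is at least 2 or at most -2, so actives lie on both sides; inactive = the rest.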 The list shows a part of the results.

Assay: Components of the Cytosolic LPS Sensing Pathway: Gene Identification via Genome-wide siRNA Screen;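 also: robust z of the log signal after scaling to non-targeting control siRNA wells of the plate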
Settings: RAW264.7 macrophages, IL-1a HTRF, actives lie on both sides, screened at 100 nM (by protocol), cells primed 5 h with Pam3CSK4 first
Method in brief: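 RAW264.7 mouse macrophages reverse-transfected with single siRNAs (100 nM final) for 48h, primed with Pam3CSK4 for 5 hours, then transfected with LipidA for 24 hour. Supernatant IL-1a read by HTRF; values normalized to negative-control median, log-transformed robust z-scores.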

| Sequence | z-score |
| --- | --- |
| GGACUGUUAGCUCGCUUUGTT against Pex2 | inactive: -1.02 |
| GGAGAUGAAGUCUAUAUCATT against C1ql3 | inactive: -0.222 |
| GGAGGACAUAUAGCUGAUUTT against Ctdsp2 | inactive: 0.302 |
| GGCUGUGUUGUCGAUUUCCTT against Nkain3 | inactive: 0.351 |
| GGCCAAGAUAAAAAAGGCCTT against 2610002M06Rik | inactive: -0.151 |
| GCUCUUCAGAGUGAUCCAATT against Acmsd | inactive: -1.74 |
| GGACUGAUCAUCUAUGACATT against Hectd4 | inactive: -0.455 |
| GGACCUUCCGUGAGAUUAUTT against Mapk15 | inactive: 0.405 |
| GGAGGUUUUGGAAGAAGAATT against 1700012B09Rik | inactive: 1.54 |
| GGAGGUGUAUGUAAUACCATT against Efs | inactive: 0.184 |
| GGACAACUGACUCCAUCAATT against Pla2g6 | inactive: -0.536 |
| GGCCAAAUGAAGUCAAAAGTT against Srsf12 | inactive: -0.212 |
| GGAGACAUUGGAGUAUGUCTT against Cst11 | inactive: -0.209 |
| CGUACUUGUUUGAUUGAUCTT against Usp13 | inactive: 0.188 |
| GGGAGAGAUCCUCAACAGGTT against Cdk5rap1 | inactive: -0.581 |
| GGCAUAGAGUACUUGCAUUTT against Camkk2 | inactive: 0.424 |
| GGAUCUUCCUCAUCACCCUTT against Ube4a | inactive: 0.657 |
| GGAAAAGGAAGAUUCUUGATT against Znrd1 | inactive: 0.675 |
| GGUUCGGUAUUCUGAUACATT against 1700028K03Rik | inactive: -0.385 |
| CGAUGACAUCGUGUUUGAGTT against Arrb2 | inactive: -0.0108 |
| GGUCAUCCUUCUAUUCUCUTT against Olfr648 | active: -2.01 |
| GGAGUCAGUAAAGAUCCUCTT against Tgif2 | inactive: 1.27 |

A different layout for part of the listing above:
GGAGAUGAAGUCUAUAUCATT against C1ql3
  z-score: inactive: -0.222
GGACUGAUCAUCUAUGACATT against Hectd4
  z-score: inactive: -0.455
GGAGGUUUUGGAAGAAGAATT against 1700012B09Rik
  z-score: inactive: 1.54
GGAUCUUCCUCAUCACCCUTT against Ube4a
  z-score: inactive: 0.657

Remaining list, next part:

| Sequence | z-score |
| --- | --- |
| GGAAUGAGUCCUCAAUUAUTT against Car1 | inactive: -0.283 |
| GCACAGCUAACCCUGUUAGTT against Isca1 | inactive: -0.00755 |
| GGCUUGACAUCUAGGGACATT against Dbp | inactive: 0.989 |
| GGAUCGGCUAGCUUUGAGCTT against Timm29 | inactive: 1.36 |
| GGAUGCAAUGACCCAAUUUTT against Ecm1 | inactive: 0.616 |
| GGGUUACCGUAAGCUGUUGTT against Uts2r | inactive: 0.0246 |
| GCUGACAGUAGGAAACUAATT against Dmp1 | inactive: -0.348 |
| CCUAUGCUAUGUAGUUUAATT against Adam21 | active: 5.58 |
| GCGAAUGGAAAAUGAAGAUTT against Marf1 | inactive: 0.839 |
| GGACAUUGACCUAAGCCCUTT against Pcnx | inactive: -1.97 |
| GGAGAUGCUGUUCUUUCCGTT against Casc3 | inactive: -1.18 |
| CGUACUCUGCCAAUGCUUCTT against Sec24b | inactive: -1.22 |
| GGUUUACUGUGAAAAAAGATT against Morc2b | inactive: 0.0774 |
| GGAGAUCUACAUGACCUUCTT against Rgs10 | inactive: 0.564 |
| GGCGAUGAUUAUAAGAUUATT against Copa | inactive: 1.28 |
| CCAGUGGUAUGUGUGCAACTT against Mettl9 | inactive: 1.04 |
| GGAACAUUCUAGAAUCUGUTT against Rps6kb2 | inactive: 0.986 |
| GCCCACCUGUGCAAUCAUATT against Arl4a | inactive: 0.792 |
| GGGACUUGUUGCUUAGCAATT against Ppip5k2 | inactive: -0.552 |
| GGUUGUUACCUUACUGUACTT against Olfr532 | inactive: 0.952 |
| GGCUGCCUUCAUCUUUUCUTT against Fth1 | inactive: 0.873 |
| GAUCUGUUACUCUUCUACUTT against Olfr1270 | inactive: 0.252 |

| Sequence | z-score |
| --- | --- |
| CCGUUUACGGCCACUAACUTT against Phkg2 | active: 3.68 |
| GGGAAACCGAGUCAAGAAGTT against Fgf11 | inactive: 0.825 |
| GGACAUCAACUAUGCCUCUTT against Kif1a | inactive: 0.707 |
| GGUCUUCAGCACCUUUGAATT against Ccl2 | inactive: -0.903 |
| GGCACACAAUUUUCACUGATT against Pcdhb9 | inactive: 0.315 |
| GCUACUGUCAAGUAUGGAATT against Psmg1 | inactive: 0.0492 |
| CCUAUAGCCGCCUUAUGGATT against Arhgef15 | inactive: 0.0435 |
| GGUCUAAUCAAUGUUUUGCTT against Zfp933 | inactive: 1.54 |
| GGCCUAUUACAAGGAAUUCTT against Gnl3l | inactive: 1.16 |
| ACUCAUUACACCCUUACCUTT against Nxpe5 | inactive: -1.19 |
| CCGACUUCGUACAAUGACCTT against Slc1a6 | inactive: 1.45 |
| GCCAAACUUACGUUUUUGATT against Trak2 | inactive: 0.81 |
| GGACUUCUGGAUUGUUGGATT against Thpo | inactive: -0.0145 |
| CGACAAGGAGACCUACAAATT against Itm2b | inactive: 0.615 |
| GGCUGUAUGUAUAUAGUCCTT against Snrpb | active: -2.41 |
| GGUAACAUCCCAGCUUUACTT against Pax7 | inactive: -0.214 |
| GGUAAAAUCCCAGAACUGCTT against Serpinb1b | inactive: -0.0969 |
| GGAAACAUUGUCAUCAUGATT against Olfr1299 | inactive: -0.787 |
| GGAGUUAAUGAUUCAUUGCTT against Ripk3 | inactive: -0.683 |
| CCUAUGGUAGAUAUCUGUGTT against Rcbtb2 | inactive: -0.612 |
| GGGUUCAAUGUGAUACACATT against Stard6 | inactive: -0.815 |
| CGUCCAAGCAUAUAUGAAATT against Slfn8 | inactive: 1.36 |

2 neighbouring entries from above, for reference:

| Sequence | z-score |
| --- | --- |
| GGCCAAAUGAAGUCAAAAGTT against Srsf12 | inactive: -0.212 |
| GGAGACAUUGGAGUAUGUCTT against Cst11 | inactive: -0.209 |

Later entries:

| Sequence | z-score |
| --- | --- |
| GGUAAUCUUUGAAAACCCUTT against Ncoa7 | inactive: -1.66 |
| GGACUUUUACCUCCUAAAATT against Me2 | inactive: 0.377 |
| GCCUCUUAUUAACUGAACGTT against Spag6 | inactive: 0.155 |
| GGGAUUUGUUAUGUCUGUATT against Srsf7 | inactive: -1.6 |
| CGCAUACUGAUGAUAACUATT against Zfp317 | active: 2.12 |
| GCUAGUGACUUUGAGAUUGTT against Msh5 | inactive: -0.75 |
| GGACUAAGCAUUUGUAUCUTT against 3110082I17Rik | inactive: -0.902 |
| GGCAAUUCUGUGUGUCACUTT against Spata18 | inactive: -0.254 |
| GGCAAUAUUUCAGAACCUGTT against Tfb2m | inactive: 0.44 |
| GGAAGUUGAUAAAUGGUCUTT against Pde1a | inactive: -0.839 |
| GGCCAUAAAAUGGUAGUAUTT against Trim36 | inactive: 0.0952 |
| GGGUGUUUACUUUAUAGAATT against Nlrp4b | inactive: -0.352 |
| GGUCACUUCACCCUUUGUATT against Gng5 | inactive: -0.422 |
| CGAUAACAUGUUGAAAAACTT against Kctd10 | inactive: 0.734 |
| GGAGGAAUACCAGGAAUACTT against Sncb | inactive: 0.33 |
| GGUCUGUUCCGUAUGAAGCTT against Ube2s | inactive: -0.585 |
| GGCUAUUUAUAGUUGUCGGTT against Unc119 | inactive: 0.0225 |
| CGAUGAAGAUUGUAACUAGTT against 4930555G01Rik | inactive: 0.498 |
| GGGAAACCUGAACUAACAGTT against Pcdha5 | inactive: 0.259 |
| GGAUAAUUCACUGUCGCUUTT against Cyp2c37 | inactive: -1.93 |
| GCUUAAUGCCUUGAAACGATT against Tsg101 | inactive: 1.9 |
| GGAACAUGAAGCCUUUUACTT against Asb16 | inactive: -1.54 |

| Sequence | z-score |
| --- | --- |
| GUGAUGGUUGGGCUUCUCATT against Olfr1450 | inactive: 0.416 |
| CCAAAAAUACUUCUCCUUCTT against Gata6 | inactive: 0.72 |
| GCGAAGAGUCAAAUCCAUCTT against Dock8 | inactive: -1.93 |
| CCUGAACACAAGUGCUGGUTT against Clec4a4 | inactive: -1.8 |
| GCAGUGGGACAUAGUCAGATT against Tmed11 | inactive: -0.381 |
| GGUGUAGAUAAGAACUAUGTT against Odf1 | inactive: 1.29 |
| GCUGGUUGUGUUAAAAUGCTT against Cyp4a14 | inactive: -1.16 |
| CCACGACACGCAAGAUGAGTT against Fzd8 | inactive: -0.756 |
| GCCACCUAGUACUCAACUATT against Baz2a | inactive: -1 |
| GGAUGUUUGUGGAUGUGGUTT against Tbx21 | inactive: -0.4 |
| GGUCUAAAAGGGCUCCUUATT against Cxcl10 | inactive: 1.77 |
| CCGACUUGGUGGAGUAUAGTT against Ddost | inactive: 0.529 |
| GGAAAUCAACAACUGUAGCTT against Tas1r2 | inactive: 1.33 |
| GGUGUCUACGAAAUUCAAATT against Exosc9 | inactive: 1.11 |
| GGCACUCUUGUUGAAAUUCTT against H6pd | inactive: 0.756 |
| GGCUUUUUGCUUCACUACUTT against Slco4c1 | inactive: 1.06 |
| CCUUCUUUUGAGAACAGAATT against Nsd1 | inactive: 0.186 |
| GGUCUUACUGUUUGUGAUATT against Olfr1295 | inactive: -0.0542 |
| CCUGCAAAUGAUACCACCGTT against Olfr734 | inactive: -0.402 |

An excerpt of these results, bar-delimited.
Sequence | z-score
GGGAGAGAUCCUCAACAGGTT against Cdk5rap1 | inactive: -0.581
GGCGAUGAUUAUAAGAUUATT against Copa | inactive: 1.28
GCUUAAUGCCUUGAAACGATT against Tsg101 | inactive: 1.9
